{
  "sequences": {"note": "By UniProt entry, the sequences of proteins in these tests, tags left out.", "UniProt Q2GG12": "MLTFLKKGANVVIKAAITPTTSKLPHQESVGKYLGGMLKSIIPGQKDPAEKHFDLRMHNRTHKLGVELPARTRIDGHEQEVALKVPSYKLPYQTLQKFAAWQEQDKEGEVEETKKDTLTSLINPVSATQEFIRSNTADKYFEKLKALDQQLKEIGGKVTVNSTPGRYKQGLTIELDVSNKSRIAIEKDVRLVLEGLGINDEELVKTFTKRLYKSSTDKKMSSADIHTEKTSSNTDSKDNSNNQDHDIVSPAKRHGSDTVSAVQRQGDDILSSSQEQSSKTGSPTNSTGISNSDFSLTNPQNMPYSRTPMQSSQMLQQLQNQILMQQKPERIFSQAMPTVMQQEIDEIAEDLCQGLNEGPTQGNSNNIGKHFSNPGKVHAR", "UniProt Q14457": "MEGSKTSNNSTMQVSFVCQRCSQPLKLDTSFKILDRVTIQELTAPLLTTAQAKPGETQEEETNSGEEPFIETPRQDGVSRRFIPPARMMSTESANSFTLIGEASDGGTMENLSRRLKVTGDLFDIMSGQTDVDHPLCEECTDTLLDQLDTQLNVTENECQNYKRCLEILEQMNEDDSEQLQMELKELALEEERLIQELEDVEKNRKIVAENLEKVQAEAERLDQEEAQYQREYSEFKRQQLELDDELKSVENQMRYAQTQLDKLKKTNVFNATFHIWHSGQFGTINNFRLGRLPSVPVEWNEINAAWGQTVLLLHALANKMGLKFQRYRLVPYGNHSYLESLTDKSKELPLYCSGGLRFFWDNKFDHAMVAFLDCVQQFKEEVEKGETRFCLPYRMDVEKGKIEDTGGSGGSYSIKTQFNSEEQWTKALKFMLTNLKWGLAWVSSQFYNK"},
  "source": "paper PMC9982066",
  "about": "“Inhibition of Ehrlichia chaffeensis infection by cell-permeable macrocyclic peptides that bind type IV secretion effector Etf-1” (PNAS Nexus, 2023)",
  "biological_target": "biotinylated full-length Etf-1 protein (E. chaffeensis) (UniProt Q2GG12)",
  "assay": "pull-down; both purified",
  "note": "Results are given in words; binding and its absence hold for the method and conditions named. Some results given as binding are weak or reduced against the parent protein; the word gives no strength.",
  "data": [
    {"substance": "recombinant full-length BECN1 protein (Beclin 1) (from UniProt Q14457 1-450)", "values": [
      {"measurement": "binding", "value": "binds"}
    ]}
  ]
}
